From PMC6446853 come the findings set out here.

Sequences of proteins named here, by UniProt entry; tags and fusion partners are left off.
UniProt P14635: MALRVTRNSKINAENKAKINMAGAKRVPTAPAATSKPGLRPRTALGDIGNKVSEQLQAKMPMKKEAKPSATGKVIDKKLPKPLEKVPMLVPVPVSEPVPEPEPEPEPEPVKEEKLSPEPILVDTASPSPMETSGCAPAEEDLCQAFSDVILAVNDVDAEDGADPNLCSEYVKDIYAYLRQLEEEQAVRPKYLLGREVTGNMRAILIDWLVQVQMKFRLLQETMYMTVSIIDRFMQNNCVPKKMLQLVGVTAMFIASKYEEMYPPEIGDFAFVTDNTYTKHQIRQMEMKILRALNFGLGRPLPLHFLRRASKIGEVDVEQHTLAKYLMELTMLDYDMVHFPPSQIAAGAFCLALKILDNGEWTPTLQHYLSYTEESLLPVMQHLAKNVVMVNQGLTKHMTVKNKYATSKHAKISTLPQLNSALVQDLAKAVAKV

Results are given in words; binding and its absence hold for the method and conditions named. In cells and extracts the contact can be indirect. A yes stands for co-enrichment or nearness to the bait. Other partners may have been found.

Assay [1] addresses CCNB1-GFP (cyclin B1 tagged at the endogenous locus) (human (endogenous in HeLa)) (UniProt P14635). Put plainly: affinity purification with mass spectrometry; CCNB1-mCherry or CCNB1-GFP precipitated with sheep anti-mCherry or anti-GFP antibodies and protein G-sepharose (2 h, 4°C) from lysates of HeLa cells arrested with 0.3 µM nocodazole for 16 h; parental HeLa as control; 20 mM Tris-HCl pH 7.4, 150 mM NaCl, 1% Igepal CA-630, 0.1% sodium deoxycholate; eluted with glycine pH 2.6.

Assay [2] has as its target CCNB1-mCherry (cyclin B1 tagged at the endogenous locus) (human (endogenous in HeLa)) (UniProt P14635). The assay is described as above.

B1: MAD1 (endogenous) (protein, UniProt Q9Y6D9 1-718)
chain: MEDLGENTMVLSTLRSLNNFISQRVEGGSGLDISTSAPGSLQMQYQQSMQLEERAEQIRSKSHLIQVEREKMQMELSHKRARVELERAASTSARNYEREVDRNQELLTRIRQLQEREAGAEEKMQEQLERNRQCQQNLDAASKRLREKEDSLAQAGETINALKGRISELQWSVMDQEMRVKRLESEKQELQEQLDLQHKKCQEANQKIQELQASQEARADHEQQIKDLEQKLSLQEQDAAIVKNMKSELVRLPRLERELKQLREESAHLREMRETNGLLQEELEGLQRKLGRQEKMQETLVGLELENERLLAKLQSWERLDQTMGLSIRTPEDLSRFVVELQQRELALKDKNSAVTSSARGLEKARQQLQEELRQVSGQLLEERKKRETHEALARRLQKRVLLLTKERDGMRAILGSYDSELTPAEYSPQLTRRMREAEDMVQKVHSHSAEMEAQLSQALEELGGQKQRADMLEMELKMLKSQSSSAEQSFLFSREEADTLRLKVEELEGERSRLEEEKRMLEAQLERRALQGDYDQSRTKVLHMSLNPTSVARQRLREDHSQLQAECERLRGLLRAMERGGTVPADLEAAAASLPSSKEVAELKKQVESAELKNQRLKEVFQTKIQEFRKACYTLTGYQIDITTENQYRLTSLYAEHPGDCLIFKATSPSGSKMQLLETEFSHTVGELIEVHLRRQDSIPAFLSSLTLELFSRQTVA
Turning to B1, the binding entry in assay [1] and in assay [2] was “binds” in each case.

B2: CDK-inhibitor p57^KIP2 (CDKN1C) (protein, UniProt P49918 1-316)
chain: MSDASLRSTSTMERLVARGTFPVLVRTSACRSLFGPVDHEELSRELQARLAELNAEDQNRWDYDFQQDMPLRGPGRLQWTEVDSDSVPAFYRETVQVGRCRLLLAPRPVAVAVAVSPPLEPAAESLDGLEEAPEQLPSVPVPAPASTPPPVPVLAPAPAPAPAPVAAPVAAPVAVAVLAPAPAPAPAPAPAPAPVAAPAPAPAPAPAPAPAPAPAPDAAPQESAEQGANQGQRGQEPLADQLHSGISGRPAAGTAAASANGAAIKKLSGPLISDFFAKRKRSAPEKSSGDVPAPCPSPSAAPGVGSVEQTPRKRLR
In the case of B2, the binding result in assay [2] is reported as “binds”.
